Results from article doi:10.1101/2025.03.21.644421 (bioRxiv, 2025).
These are yes or no findings as the source states them, for the method shown. In cells and extracts the contact can be indirect. A result given as binding can be weak or reduced; the word gives no strength. Where a sequence is shown, tags or fusion partners need not be part of it.

Protein sequences, listed by entry. Tags and fused reporters are not part of them. Lines headed by an entry give the natural chain unless they say otherwise; changes in a name come on top.
UniProt P0AD03: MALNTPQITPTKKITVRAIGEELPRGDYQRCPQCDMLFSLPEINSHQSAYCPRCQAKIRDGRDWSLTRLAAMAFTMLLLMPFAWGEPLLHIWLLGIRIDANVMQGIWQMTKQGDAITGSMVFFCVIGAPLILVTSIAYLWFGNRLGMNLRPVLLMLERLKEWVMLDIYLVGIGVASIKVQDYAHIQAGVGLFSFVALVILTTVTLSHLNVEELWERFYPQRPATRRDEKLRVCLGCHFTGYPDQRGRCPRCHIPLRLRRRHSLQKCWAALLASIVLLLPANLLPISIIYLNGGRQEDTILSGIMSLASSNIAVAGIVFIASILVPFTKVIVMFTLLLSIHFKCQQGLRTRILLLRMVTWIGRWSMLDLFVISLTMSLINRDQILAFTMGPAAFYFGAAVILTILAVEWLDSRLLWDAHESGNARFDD

Biological target: LetAΔZnR^C (E. coli) (UniProt P0AD03)
Assay: pull-down

binding: binds
B1: LetB (Lipophilic Envelope-spanning Tunnel B), untagged (natural protein, E. coli, UniProt P76272 1-877, looked up)
chain: MSQETPASTTEAQIKNKRRISPFWLLPFIALMIASWLIWDSYQDRGNTVTIDFMSADGIVPGRTPVRYQGVEVGTVQDISLSDDLRKIEVKVSIKSDMKDALREETQFWLVTPKASLAGVSGLDALVGGNYIGMMPGKGKEQDHFVALDTQPKYRLDNGDLMIHLQAPDLGSLNSGSLVYFRKIPVGKVYDYAINPNKQGVVIDVLIERRFTDLVKKGSRFWNVSGVDANVSISGAKVKLESLAALVNGAIAFDSPEESKPAEAEDTFGLYEDLAHSQRGVIIKLELPSGAGLTADSTPLMYQGLEVGQLTKLDLNPGGKVTGEMTVDPSVVTLLRENTRIELRNPKLSLSDANLSALLTGKTFELVPGDGEPRKEFVVVPGEKALLHEPDVLTLTLTAPESYGIDAGQPLILHGVQVGQVIDRKLTSKGVTFTVAIEPQHRELVKGDSKFVVNSRVDVKVGLDGVEFLGASASEWINGGIRILPGDKGEMKASYPLYANLEKALENSLSDLPTTTVSLSAETLPDVQAGSVVLYRKFEVGEVITVRPRANAFDIDLHIKPEYRNLLTSNSVFWAEGGAKVQLNGSGLTVQASPLSRALKGAISFDNLSGASASQRKGDKRILYASETAARAVGGQITLHAFDAGKLAVGMPIRYLGIDIGQIQTLDLITARNEVQAKAVLYPEYVQTFARGGTRFSVVTPQISAAGVEHLDTILQPYINVEPGRGNPRRDFELQEATITDSRYLDGLSIIVEAPEAGSLGIGTPVLFRGLEVGTVTGMTLGTLSDRVMIAMRISKRYQHLVRNNSVFWLASGYSLDFGLTGGVVKTGTFNQFIRGGIAFATPPGTPLAPKAQEGKHFLLQESEPKEWREWGTALPK
